Data: publication PMC5371411
No constants are given. Whether binding was seen depends on the method and setting. Some results given as binding are weak or reduced against the parent protein; the word gives no strength.

Chains of the proteins cited; added tags and fusions are not shown.
UniProt Q47184: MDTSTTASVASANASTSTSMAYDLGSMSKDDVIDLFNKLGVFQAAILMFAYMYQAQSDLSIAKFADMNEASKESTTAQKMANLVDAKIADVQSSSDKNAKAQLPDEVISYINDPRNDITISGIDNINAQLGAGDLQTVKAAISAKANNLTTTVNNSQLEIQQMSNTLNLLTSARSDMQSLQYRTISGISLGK

Legend:
[1] = molecular target: His-EspCΔMiddle (enteropathogenic Escherichia coli (EPEC)) (UniProt Q9EZE7); test: far-Western, overlay or dot blot; both purified
[2] = molecular target: His-EspCΔMiddle (enteropathogenic Escherichia coli (EPEC)) (UniProt Q9EZE7); test: far-Western, overlay or dot blot; dot blot overlay under nondenaturing conditions: EspC and derivatives (2.5, 5, 10, 20 nM) adsorbed to nitrocellulose, incubated with His-EspA at 5 µg/ml in binding buffer for 1.5 h; detected with anti-EspA; both purified

Substance: His-EspA (from UniProt Q47184 1-192)
- binding [1]: binds
- binding [2]: binds
